Assay results from PubChem BioAssay AID504648 (National Center for Advancing Translational Sciences (NCATS), 2011).
Out of some 390,000 compounds screened, about 610 (0.16%) were called active. Inconclusive results, whose numbers are uncertain, are shown with a selection of clear calls. Calls follow the shape of the dose curve; as a rule, active = well fitted inhibition curve with a large enough effect; inconclusive = small, poorly fitted or top-dose-only effect, or effect the other way, or another doubt; inactive = no such curve, though single readings can be large or run the other way. A potency beside an inconclusive call is a rough fit, not a confirmed value.
Potency is read from the fitted curve at half-maximal effect.

Assay: Nrf2 qHTS screen for inhibitors: counterscreen for cytotoxicity
Settings: A549 ARE-Fluc cells, CellTiter-Fluor viability, 18-24 h; series mostly up to 46 µM
Summary of the method: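 Cytotoxicity counterscreen: CellTiter-Fluor fluorescence was measured in A549 ARE_Fluc cells after 18-24 h of compound exposure in a concentration series. The subsequent BugLite luminescent read reports ARE-luciferase activity.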
For `CCOc1cc(/C=N/NC(=O)c2ccc(O)cc2)ccc1Oc1nc(Cl)ncc1F`, the Potency was “inactive”. With `Cc1ccc(-c2cc3nc(-c4ccccc4)cc(N)n3n2)cc1` the Potency was “inactive”. For `COc1ccc(N2CCN(C(=O)c3ccc4c(c3)CC(c3ccccc3)OC4=O)CC2)cc1` (stereo unspecified), the Potency was inconclusive: 0.146 µM [falling, full curve, poor fit]. For `CC(=O)c1ccc(N=Cc2c(O)n(-c3cc(Cl)ccc3N3CCOCC3)c(=O)c3ccccc23)cc1`, the Potency was inconclusive: 29.1 µM [falling, partial curve, poor fit]. In the case of `CC1=Nc2ccccc2/C1=C/c1c(N)n2c(S(=O)(=O)CC(C)C)nsc2nc1=O`, the Potency is reported as inconclusive: 23.1 µM [falling, partial curve]. For `Cc1ccc(-c2noc(CSc3nnc(CCc4ccccc4)n3-c3ccccc3)n2)cc1`, the Potency was inconclusive: 29.1 µM [falling, single point]. With `O=C(Nc1ncc(Cc2cc(Cl)ccc2Cl)s1)c1ccc([N+](=O)[O-])cc1` the Potency was inconclusive: 29.1 µM [falling, single point]. In the case of `COc1ccc(-n2ncc3c(NCCC4=CCCCC4)ncnc32)cc1`, the Potency is reported as “inactive”. In the case of `CCNC(=S)N(CCc1c(C)[nH]c2ccc(C)cc12)Cc1cccs1`, the Potency is reported as inconclusive: 23.1 µM [falling, partial curve, poor fit]. In the case of `C/C(=N\NC(=O)C1CCCN(S(=O)(=O)c2ccccc2)C1)c1ccccn1` (stereo unspecified), the Potency is reported as inconclusive: 18.4 µM [falling, single point]. With `COc1ccccc1NC(=O)CN1CCN(c2ccccc2OC)CC1` the Potency was inconclusive: 20.6 µM [activator, partial curve, poor fit]. For `CC(=O)N1CCN(c2ccc(Oc3ccc([N+](=O)[O-])c(C(F)(F)F)c3)cc2)CC1`, the Potency was inconclusive: 25.9 µM [falling, single point]. In the case of `COc1cccc(CNC(=O)COC(=O)c2ccc(C(=O)c3ccccc3)cc2)c1`, the Potency is reported as inconclusive: 0.116 µM [activator, partial curve, poor fit]. For `Cc1cc(C)n(-c2nc3ccccc3nc2Nc2cc(C(=O)O)ccc2C)n1`, the Potency was “inactive”. For `CC(C)CCOc1ccc(C(=O)NNC(=O)CNC(=O)c2ccccc2F)cc1`, the Potency was inconclusive: 18.4 µM [activator, partial curve, poor fit]. In the case of `Cc1ccccc1C1CC(c2ccc(F)cc2)Nc2nc(N)nn21` (stereo unspecified), the Potency is reported as inconclusive: 1.3 µM [activator, full curve, poor fit]. For `O=C(Nc1ccc(NC(=O)c2cccs2)cc1)c1ccc2ccccc2c1`, the Potency was inconclusive: 14.6 µM [activator, partial curve, poor fit]. In the case of `Cc1cccc(C)c1-n1cccc1/C=C1\SC(=S)N(c2cccc(C(=O)O)c2)C1=O`, the Potency is reported as “inactive”. With `COc1ccc(S(=O)(=O)N(CC(=O)NCc2ccc(C)cc2)c2ccc(Cl)cc2)cc1` the Potency was “inactive”. For `Cc1ccc(C)c(NS(=O)(=O)c2cc3c(cc2Cl)NC(=O)CO3)c1`, the Potency was inconclusive: 14.6 µM [falling, partial curve, poor fit]. For `CCn1c(=O)c(C(=O)Nc2ncccc2C)c(O)c2ccccc21`, the Potency was inconclusive: 18.4 µM [falling, single point]. For `Cc1cc(C)c[n+](-c2nc3ccccc3nc2[N-]S(=O)(=O)c2ccc(Br)s2)c1`, the Potency was inconclusive: 29.1 µM [falling, partial curve, poor fit]. In the case of `CC(C)(C)OC(=O)N1CCC(c2c(C(=O)NCCN3CCC(Cc4ccccc4)CC3)cnn2-c2ccccc2)CC1`, the Potency is reported as inconclusive: 32.6 µM [falling, single point]. With `COc1ccc(-n2nc3c(N4CCCC(C(=O)NCCc5ccc(C)cc5)C4)nnc(C)c3c2C)cc1` (stereo unspecified) the Potency was inconclusive: 23.1 µM [falling, partial curve, poor fit]. For `CN1CCN(C(=O)CCN2C(=O)/C(=C\c3ccccc3F)SC2=S)CC1`, the Potency was active: 23.1 µM. For `COc1cccc(CNC(=O)Cn2ccc3cc(S(=O)(=O)N4CCCCCC4)ccc32)c1`, the Potency was inconclusive: 32.6 µM [falling, partial curve, poor fit]. In the case of `COc1cc(C(=O)N2CCN(c3ccccc3)CC2)c2ccccc2n1`, the Potency is reported as inconclusive: 6.51 µM [falling, partial curve, poor fit]. For `Clc1ccc(-c2cn3nc4c(nc3n2)CCCC4)cc1`, the Potency was inconclusive: 25.9 µM [activator, partial curve, poor fit]. With `COc1ccc(NC(=O)c2ccc(-c3csc(C)n3)cc2)cc1` the Potency was “inactive”. In the case of `CC(C)c1ccc(S(=O)(=O)Nc2ccc3oc4c(c3c2)C(=O)CC(C)(C)C4)cc1`, the Potency is reported as inconclusive: 32.6 µM [activator, single point]. In the case of `CCC(C(=O)NC1CC1)n1nc(C)c2c(C)n(-c3ccc(C)cc3)nc2c1=O` (stereo unspecified), the Potency is reported as “inactive”. In the case of `COC(=O)c1ccc(/C=C(\C#N)C(=O)NC(C)c2ccccc2)cc1` (stereo unspecified), the Potency is reported as inconclusive: 23.1 µM [falling, partial curve, poor fit]. With `C[C@]12c3[nH]c4cc(-c5ccco5)ccc4c3CCN1C(=O)[C@@H](CC(=O)NCCC1=CCCCC1)C[C@@H]2C(=O)N1CCOCC1` the Potency was inconclusive: 32.6 µM [falling, partial curve, poor fit]. For `Cc1ccc(-c2cc(C(=O)NCCc3ccccc3)c3c(-c4ccc(C)cc4)[nH]nc3n2)cc1`, the Potency was inconclusive: 29.1 µM [falling, single point]. With `O=C1c2cccc3c([N+](=O)[O-])c(O)cc(c23)C(=O)N1Nc1ccccc1` the Potency was inconclusive: 25.9 µM [falling, single point]. With `COC(=O)c1sc(N)c(C(=O)OC)c1COC(=O)C12CC3CC(CC(O)(C3)C1)C2` the Potency was inconclusive: 9.2 µM [falling, partial curve, poor fit]. For `CCn1cc(C(=O)N2CCN(c3cc(C)ccc3C)CC2)c(=O)c2cc(S(=O)(=O)N(C)C3CCCCC3)ccc21`, the Potency was inconclusive: 23.1 µM [falling, partial curve, poor fit]. For `Cc1cccc(Nc2c3c(nc4nncn24)CCC3)c1`, the Potency was inconclusive: 9.2 µM [activator, partial curve, poor fit]. With `O=C(COC(=O)c1ccccc1C(=O)c1ccc(Cl)c([N+](=O)[O-])c1)NC1CCCCCC1` the Potency was inconclusive: 16.4 µM [falling, single point]. In the case of `CCOC(=O)C(=Cc1ccc(-n2cncn2)cc1)C(=O)OCC`, the Potency is reported as inconclusive: 29.1 µM [falling, single point]. With `COc1cccc(NC(=O)CN(C)C(=O)c2cc(-c3cccc(Br)c3)nc3ccccc23)c1` the Potency was inconclusive: 32.6 µM [falling, partial curve, poor fit]. For `COc1ccccc1C1=NNC(=Nc2cccc(S(=O)(=O)N(C)C)c2)SC1`, the Potency was inconclusive: 29.1 µM [falling, single point]. For `CN(C)CCSc1nc(N)c2c3c(sc2n1)COC(C)(C)C3`, the Potency was inconclusive: 20.6 µM [falling, single point]. In the case of `CCOc1ccc(CNC2CCCc3ccccc32)cc1` (stereo unspecified), the Potency is reported as inconclusive: 23.1 µM [activator, partial curve, poor fit]. With `CC(=O)c1ccc(OCC(O)CN2CCN(CC(O)COc3ccc(C(C)=O)cc3)CC2)cc1` (stereo unspecified) the Potency was “inactive”. In the case of `CCOc1ccc(/C=N/NC(=O)c2cc3c(OC)cccc3[nH]2)cc1`, the Potency is reported as inconclusive: 25.9 µM [falling, partial curve, poor fit]. For `O=C(Nc1ccc2c(c1)CCC2)c1ccc(Br)s1`, the Potency was inconclusive: 32.6 µM [falling, partial curve, poor fit]. For `COc1ccc(-c2cc(C(=O)NCc3ccc(F)cc3)c3c(-c4ccc(F)cc4)[nH]nc3n2)cc1OC`, the Potency was inconclusive: 25.9 µM [falling, single point]. In the case of `N#C/C(=C(/O)c1cc2ccccc2o1)c1nc2ccccc2s1`, the Potency is reported as inconclusive: 29.1 µM [falling, single point]. With `CCOc1ccc2nc(NC(=O)CC3Oc4ccccc4NC3=O)sc2c1` (stereo unspecified) the Potency was inconclusive: 29.1 µM [falling, single point]. In the case of `CC(=O)Nc1sc2c(c1C(c1ccc(Cl)cc1)N1CCOCC1)CCCC2` (stereo unspecified), the Potency is reported as inconclusive: 18.4 µM [falling, single point]. In the case of `Nc1nnc(SCC(=O)Nc2ccc(F)c(Cl)c2)n1-c1ccccc1`, the Potency is reported as inconclusive: 32.6 µM [falling, partial curve, poor fit]. With `O=C(N/N=C/c1ccc([N+](=O)[O-])o1)c1ccc2c(c1)OCO2` the Potency was inconclusive: 29.1 µM [falling, single point]. With `Cc1ccc(C2=N/C(=C/c3cccs3)C(=O)N2Nc2ccccc2)cc1` the Potency was inconclusive: 23.1 µM [falling, single point]. For `Cc1cccn2c(=O)c3cc(C(=O)NCc4ccccc4)c(=N)n(CCOCCO)c3nc12`, the Potency was inconclusive: 10.3 µM [activator, partial curve, poor fit]. In the case of `CCCOC1CCCN(C(=O)CCc2nnc(Cc3cccc(C)c3)o2)C1` (stereo unspecified), the Potency is reported as “inactive”. In the case of `O=C(Cc1c(O)c2ccccc2[nH]c1=O)NCc1ccc(F)cc1`, the Potency is reported as inconclusive: 25.9 µM [activator, partial curve, poor fit]. In the case of `COc1ccc2ncnc(NCC3CCCO3)c2c1-c1ccc2c(c1)OCO2` (stereo unspecified), the Potency is reported as “inactive”. For `Cc1cc(C)cc(OCCCn2c(CCNC(=O)C3CCCCC3)nc3ccccc32)c1`, the Potency was inconclusive: 29.1 µM [falling, single point]. For `Nc1cc(=O)[nH]c(SCCSc2ccccc2)n1`, the Potency was “inactive”. For `C(=C\c1nc(N2CCCCCC2)c2ccccc2n1)/c1ccccc1`, the Potency was inconclusive: 29.1 µM [falling, single point].
